The subject of this series is BON and BON‐SSTR2 tumors. Put plainly: Histological ex vivo examination of tumor sections (confocal laser scanning microscopy). It is filed as in vivo, mouse. As to conditions: 6 nmol i.v., mice n=3 sacrificed 5 h p.i., P=0.005 vs wild‐type.

The structures appear in SMILES notation.

The values that follow come from PMC8048842 (Chembiochem, 2021).

As to `C[C@@H](O)[C@H](NC(=O)[C@@H]1CSSC[C@H](NC(=O)[C@@H](Cc2ccccc2)NC(=O)c2ccc3c(c2)C(C)(C)/C(=C/C=C/C2=[N+](C)c4ccc(CNC(=O)CNC(=O)CN5CCN(CC(=O)O)CCN(CC(=O)O)CCN(CC(=O)O)CC5)cc4C2(C)C)N3CCCCS(=O)(=O)[O-])C(=O)N[C@@H](Cc2ccc(O)cc2)C(=O)N[C@H](Cc2c[nH]c3ccccc23)C(=O)N[C@@H](CCCCN)C(=O)N[C@@H]([C@@H](C)O)C(=O)N1)C(=O)O` [^natGa‐DOTA‐ICC‐TATE, metal not drawn], the “ICC fluorescence in SSTR2‐overexpressing tumor sections (mean grey value)” value is listed as 32.8±5.4.
